Test results: PubChem BioAssay AID330 (DTP/NCI, 2004)
The list is a part of this screen's results and no random one: it gathers tests that were run many times, whatever their T/C, doses with no T/C, and many T/C values between a quarter and a half above the control. Further doses and runs are listed elsewhere. T/C is the treated group as % of the vehicle group. Some doses have a count of surviving animals in place of a T/C: the source holds a T/C of zero for them, seemingly a mark for toxic or unscored doses. Some survivor counts are full or nearly so, which does not show that the dose was tolerated: the source hardly ever lists a survival T/C far under the control, and the zero likely stands for such cases as well. Survivors were counted at the toxicity check, usually on the fifth day, unless a day is given; later deaths do not show. Schedules are NCI's codes, read here as Q, the interval in days (D) or hours (H), X, the number of doses. Some entries were tested several times; the values are given in rising order. For survival time, this PubChem deposit counts one and a half times the control or more as active, and values a quarter to a half above the control carry no call in these data; other NCI protocols may use other cut-offs. Some T/C values carry the count of animals alive at the toxicity check (mostly the fifth day); where none is given, no animal had died by that day.

Test system: P388 leukemia ip, CD2F1 mice, survival T/C
Assay: NCI In Vivo Anticancer Drug Screen. Data for tumor model P388 Leukemia (intraperitoneal) in CD2F1 (CDF1) mice
Conditions: T/C endpoint: median survival time, higher T/C = longer survival
[1] = dose: 60.0 mg/kg/injection, schedule: Q01DX005 (ip), vehicle: saline with Tween-80
[2] = dose: 120.0 mg/kg/injection, schedule: Q01DX005 (ip), vehicle: saline with Tween-80
[3] = dose: 240.0 mg/kg/injection, schedule: Q01DX005 (ip), vehicle: saline with Tween-80
[4] = dose: 200.0 mg/kg/injection, schedule: Q01DX005 (ip), vehicle: Klucel (hydroxypropylcellulose) (HPC)
[5] = dose: 100.0 mg/kg/injection, schedule: Q01DX009 (ip), vehicle: saline
[6] = dose: 50.0 mg/kg/injection, schedule: Q01DX009 (ip), vehicle: saline with Tween-80
[7] = dose: 100.0 mg/kg/injection, schedule: Q01DX009 (ip), vehicle: saline with Tween-80
[8] = dose: 200.0 mg/kg/injection, schedule: Q01DX009 (ip), vehicle: saline with Tween-80
[9] = dose: 100.0 mg/kg/injection, schedule: Q04DX003 (ip), vehicle: saline with Tween-80
[10] = dose: 200.0 mg/kg/injection, schedule: Q01DX009 (ip), vehicle: saline
[11] = dose: 200.0 mg/kg/injection, schedule: Q01DX005 (ip), vehicle: saline with Tween-80
[12] = dose: 25.0 mg/kg/injection, schedule: Q01DX005 (ip), vehicle: water

Structure (SMILES): CCc1nc(N)nc(N)c1-c1ccc(NCCCCCCCCCCCCN)c([N+](=O)[O-])c1
- T/C [1]: 130 and 143 % of control
- survivor count [2]: 5 of 6
- survivor count [3]: 0 of 6

Structure (SMILES): CCn1c(Cl)c(/C=N/NC(N)=S)c2ccccc21
- survivor count (dose: 400.0 mg/kg/injection, schedule: Q01DX001 (ip), vehicle: Klucel (hydroxypropylcellulose) (HPC)): 4 of 6

Structure (SMILES): CN1C(=O)C(N=O)C(=O)N(C)C1=S
- survivor count (dose: 100.0 mg/kg/injection, schedule: Q04DX002 (ip), vehicle: saline with Tween-80): 0 of 6
- survivor count (dose: 200.0 mg/kg/injection, schedule: Q04DX002 (ip), vehicle: saline with Tween-80): 0 of 6
- survivor count (dose: 400.0 mg/kg/injection, schedule: Q04DX002 (ip), vehicle: saline with Tween-80): 0 of 6

Structure (SMILES): Nc1ccc(-c2nc3ccccc3[nH]2)cc1
- survivor count (dose: 400.0 mg/kg/injection, schedule: Q04DX003 (ip), vehicle: saline): 0 of 6

Structure (SMILES): NC(N)=Nc1ccc(-c2cc3cc(N=C(N)N)ccc3s2)cc1
- survivor count (dose: 100.0 mg/kg/injection, schedule: Q01DX005 (ip), vehicle: Klucel (hydroxypropylcellulose) (HPC)): 1 of 5
- survivor count [4]: 0 of 5

Structure (SMILES): OC1OCCOC1O (centres undefined)
- T/C (dose: 44.0 mg/kg/injection, schedule: Q01DX009 (ip), vehicle: saline): 126 % of control
- T/C (dose: 66.0 mg/kg/injection, schedule: Q01DX009 (ip), vehicle: saline): 128 % of control
- T/C [5]: 133 % of control
- T/C (dose: 150.0 mg/kg/injection, schedule: Q01DX009 (ip), vehicle: saline): 137 % of control

Structure (SMILES): CSC(=S)N/N=C/c1ccccn1
- survivor count [6]: 6 of 6
- survivor count [7]: 2 of 6 and 5 of 6
- survivor count [8]: 4 of 6

Structure (SMILES): O=C1C(=O)c2ccccc2C(O)=C1Sc1ccc2ccccc2c1
- survivor count (dose: 25.0 mg/kg/injection, schedule: Q01DX009 (ip), vehicle: saline with Tween-80): 6 of 6
- survivor count [6]: 6 of 6

Structure (SMILES): CCc1ccc(O)c(CN2CCN(Cc3cc(CC)ccc3O)CC2)c1
- survivor count [1]: 6 of 6
- survivor count [2]: 6 of 6
- survivor count [3]: 6 of 6

Structure (SMILES): O=NN(CCCl)C(=O)Nc1cc(Cl)ccc1O
- T/C (dose: 33.0 mg/kg/injection, schedule: Q04DX003 (ip), vehicle: saline with Tween-80): 131 % of control
- T/C (dose: 50.0 mg/kg/injection, schedule: Q04DX003 (ip), vehicle: saline with Tween-80): 145 % of control
- T/C (dose: 75.0 mg/kg/injection, schedule: Q04DX003 (ip), vehicle: saline with Tween-80): 145 % of control
- T/C [7]: 145 % of control
- T/C [9]: 131 % of control
- survivor count [8]: 2 of 6
- T/C (dose: 200.0 mg/kg/injection, schedule: Q04DX003 (ip), vehicle: saline with Tween-80): 136 % of control [5 of 6 alive]

Structure (SMILES): O=C1OC2C(COC(=O)c3cc(O)c(O)c(O)c3)OC(OC(=O)c3cc(O)c(O)c(O)c3)C(OC(=O)c3cc(O)c(O)c4c3C3C1=CC(=O)[C@](O)(O4)C3(O)O)C2OC(=O)c1cc(O)c(O)c(O)c1 (some centres undefined)
- survivor count (dose: 50.0 mg/kg/injection, schedule: Q01DX009 (ip), vehicle: saline): 4 of 6
- survivor count [5]: 0 of 6
- survivor count [10]: 0 of 6

Structure (SMILES): Cn1nnc(-c2ccc(C(=O)O)cc2)n1
- survivor count [4]: 5 of 5

Structure (SMILES): COc1ccc(Cc2nnc3nc(OC)c(-c4ccc(OC)cc4)n3n2)cc1
- survivor count (dose: 100.0 mg/kg/injection, schedule: Q01DX005 (ip), vehicle: saline with Tween-80): 6 of 6

Structure (SMILES): CCCCCCCCCCCOc1cccc(N2C(N)=NC(N)=NC2(C)C)c1
- survivor count [1]: 2 of 6
- survivor count [2]: 0 of 6
- survivor count [3]: 0 of 6

Structure (SMILES): O=C1NN=C(c2ccccc2)CS1
- survivor count [8]: 4 of 6

Structure (SMILES): O/N=C\c1ccccc1P(c1ccccc1/C=N\O)c1ccccc1/C=N\O
- survivor count (dose: 400.0 mg/kg/injection, schedule: Q01DX001 (ip), vehicle: saline with Tween-80): 6 of 6

Structure (SMILES): O=c1cccc(O)[nH]1
- survivor count [10]: 2 of 6 and 5 of 6
- survivor count (dose: 400.0 mg/kg/injection, schedule: Q01DX009 (ip), vehicle: saline): 0 of 6
- survivor count (dose: 600.0 mg/kg/injection, schedule: Q01DX009 (ip), vehicle: saline): 0 of 6

Structure (SMILES): CC1=C(OS(C)(=O)=O)CCC1=O
- survivor count [11]: 0 of 6

Structure (SMILES): CCOc1ccc(-c2nc3ccc(-c4nc5ccc(N6CCN(C)CC6)cc5[nH]4)cc3[nH]2)cc1
- T/C (dose: 3.13 mg/kg/injection, schedule: Q01DX005 (ip), vehicle: water): 127 and 131 % of control
- T/C (dose: 6.25 mg/kg/injection, schedule: Q01DX005 (ip), vehicle: water): 128, 134, 150, 156 % of control
- T/C (dose: 12.5 mg/kg/injection, schedule: Q01DX005 (ip), vehicle: water): 127, 147, 150, 173 % of control
- T/C [12]: 90, 106, 150 % of control
- survivor count [12]: 5 of 6
- survivor count (dose: 50.0 mg/kg/injection, schedule: Q01DX005 (ip), vehicle: water): 3 of 6
- survivor count (dose: 100.0 mg/kg/injection, schedule: Q01DX005 (ip), vehicle: water): 0 of 6
- survivor count (dose: 200.0 mg/kg/injection, schedule: Q01DX005 (ip), vehicle: water): 0 of 6

Structure (SMILES): CC=C(/C(=C/C)c1ccc(O)cc1)c1ccc(O)cc1
- T/C [7]: 129 % of control
- T/C (dose: 150.0 mg/kg/injection, schedule: Q01DX009 (ip), vehicle: saline with Tween-80): 141 % of control

Structure (SMILES): Oc1c(Cl)cc(Cl)cc1CN1CCCCC1
- survivor count (dose: 400.0 mg/kg/injection, schedule: Q01DX009 (ip), vehicle: suspension in saline): 5 of 6

Structure (SMILES): Cc1cc(N(CCCl)CCCl)c(C)cc1NC(=O)c1ccccc1
- T/C (dose: 25.0 mg/kg/injection, schedule: Q04DX003 (ip), vehicle: saline with Tween-80): 127 % of control
- survivor count [9]: 6 of 6

Structure (SMILES): CCC1CCCC[N+]1(C)[B-](F)(F)F (centres undefined)
- survivor count (dose: 200.0 mg/kg/injection, schedule: Q01DX005 (ip), vehicle: saline): 0 of 6

Structure (SMILES): Cc1ccc(-c2c3c(c(-c4ccc(C)cc4)c(-c4ccccc4)c2-c2ccccc2)-c2ccccc2C3)cc1
- survivor count [7]: 6 of 6
- survivor count [8]: 6 of 6

Structure (SMILES): CCOc1ccc2c(N/N=C/c3ccc(N(CCCl)CCCl)cc3)cc(C)nc2c1
- survivor count [7]: 5 of 6
- survivor count [8]: 6 of 6

Structure (SMILES): c1cc[n+]2cc3cc4c(cc3cc2c1)OCO4
- T/C (dose: 12.5 mg/kg/injection, schedule: Q01DX009 (ip), vehicle: distilled water + Tween-80): 127 and 129 % of control
- survivor count (dose: 25.0 mg/kg/injection, schedule: Q01DX009 (ip), vehicle: distilled water + Tween-80): 0 of 6
- survivor count (dose: 50.0 mg/kg/injection, schedule: Q01DX009 (ip), vehicle: distilled water + Tween-80): 0 of 6 and 1 of 6
- survivor count (dose: 100.0 mg/kg/injection, schedule: Q01DX009 (ip), vehicle: distilled water + Tween-80): 0 of 6
- survivor count (dose: 200.0 mg/kg/injection, schedule: Q01DX009 (ip), vehicle: distilled water + Tween-80): 0 of 6
- survivor count (dose: 400.0 mg/kg/injection, schedule: Q01DX009 (ip), vehicle: distilled water + Tween-80): 0 of 6

Structure (SMILES): CCc1c2cc(OC)c(OC)cc2cc2c3cc(OC)c(OC)cc3cc[n+]12 (tested in a mixture with another compound)
- T/C (dose: 13.2 mg/kg/injection, schedule: Q04DX003 (ip), vehicle: saline): 125 % of control
- T/C (dose: 30.0 mg/kg/injection, schedule: Q04DX003 (ip), vehicle: saline): 140 % of control
- T/C (dose: 50.0 mg/kg/injection, schedule: Q04DX003 (ip), vehicle: saline): 139 % of control
- T/C [7]: 148 % of control
- T/C (dose: 100.0 mg/kg/injection, schedule: Q04DX003 (ip), vehicle: saline): 139 % of control
- T/C (dose: 132.0 mg/kg/injection, schedule: Q04DX003 (ip), vehicle: saline): 141 % of control

Structure (SMILES): O=C(O)/C(Cl)=C(\Cl)C(=O)Nc1ccccc1C(F)(F)F
- survivor count [11]: 0 of 6
